# Assay results published in PubChem BioAssay (EPA / NIEHS).
# The chains behind the UniProt entries cited, without tags or fusion partners. Where a name states a change or a piece, a line headed by the entry shows the natural chain unless it says otherwise.
# UniProt P10275: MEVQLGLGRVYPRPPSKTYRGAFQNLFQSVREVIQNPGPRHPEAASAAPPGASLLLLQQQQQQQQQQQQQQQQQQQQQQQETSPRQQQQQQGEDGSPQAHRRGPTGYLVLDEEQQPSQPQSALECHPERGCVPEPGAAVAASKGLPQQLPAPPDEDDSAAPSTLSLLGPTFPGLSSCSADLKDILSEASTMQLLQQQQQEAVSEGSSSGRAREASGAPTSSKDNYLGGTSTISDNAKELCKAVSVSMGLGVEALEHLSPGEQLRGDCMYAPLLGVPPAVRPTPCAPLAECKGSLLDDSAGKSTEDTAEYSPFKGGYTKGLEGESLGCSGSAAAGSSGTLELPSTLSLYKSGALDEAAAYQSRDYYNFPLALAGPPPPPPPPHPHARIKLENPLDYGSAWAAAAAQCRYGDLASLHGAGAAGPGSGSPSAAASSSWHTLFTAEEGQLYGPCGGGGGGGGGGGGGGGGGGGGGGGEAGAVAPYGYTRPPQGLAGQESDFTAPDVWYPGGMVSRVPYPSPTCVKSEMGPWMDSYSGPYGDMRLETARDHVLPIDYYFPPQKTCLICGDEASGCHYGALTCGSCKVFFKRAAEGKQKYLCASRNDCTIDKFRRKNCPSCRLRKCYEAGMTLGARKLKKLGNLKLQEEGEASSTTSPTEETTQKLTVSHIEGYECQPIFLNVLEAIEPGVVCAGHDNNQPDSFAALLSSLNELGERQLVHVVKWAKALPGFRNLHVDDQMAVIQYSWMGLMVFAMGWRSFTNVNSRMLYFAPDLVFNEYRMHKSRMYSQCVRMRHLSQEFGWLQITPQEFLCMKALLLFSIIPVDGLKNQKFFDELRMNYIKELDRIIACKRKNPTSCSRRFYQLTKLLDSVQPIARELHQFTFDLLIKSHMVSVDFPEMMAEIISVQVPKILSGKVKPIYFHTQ
# “And” between values parts separate entries of the source, which are not always exact repeats. Identical values can stand only once. Inconclusive means that the source gave no clear call. Such entries were picked first, then a sample of the others. A potency beside an inconclusive call is a rough fit, not a confirmed value. The source made the active and inactive calls. How the source made its calls: active means hit-call score of the fitted dose curve at least 0.9, where 1 is the maximum; inconclusive means response in the unintended direction; inactive means score below 0.9.
# Target: Androgen receptor (Homo sapiens) (UniProt P10275)
# Assay: ATG_AR_TRANS: Attagene TRANS-FACTORIAL HepG2 Assay for human Androgen Receptor (AR) (AID 2282973)
# Details: HepG2 Attagene TRANS-FACTORIAL AR reporter transcription
# Procedure, shortened: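 Transfected HepG2, 24 h treatment, chimeric NR-Gal4 driving GAL4-UAS reporters. mRNA induction by RT-PCR/capillary electrophoresis fluorescence; DMSO as negative control and baseline.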
Structure (SMILES),outcome,AC50
Cc1cc(CCN2CCN(c3nsc4ccccc34)CC2)cc2c1NC(=O)CC2(C)C,inactive,
NCc1cccc(C2CCN(C(=O)c3ccc(C#Cc4ccccc4F)o3)CC2)c1,,inconclusive: 1.15 µM
Cc1ccc(C(C)C)cc1,,inconclusive: 100 µM
NC(=NCCCCCCN=C(N)/N=C(\N)Nc1ccc(Cl)cc1)/N=C(\N)Nc1ccc(Cl)cc1,,inconclusive: 44 µM and inconclusive: 44.9 µM
COc1cc([N+](=O)[O-])ccc1N,,inconclusive: 3.34 µM
CNC(=O)[C@H]1O[C@@H](n2cnc3c(NCc4cc(Cl)ccc4OCc4cc(C)no4)ncnc32)[C@H](O)[C@@H]1N,,inconclusive: 0.46 µM
c1ccc2c(c1)ccc1ncccc12,,inconclusive: 9.51 µM
CN(C)c1ccc(C(=C2C=CC(=[N+](C)C)C=C2)c2ccc(N(C)C)cc2)cc1,inactive,
O=CC1CC1,,inconclusive: 24.1 µM
OCCN1CN(CCO)CN(CCO)C1,inactive,
CSC(=O)c1cccc2nnsc12,,inconclusive: 0.0129 µM
CCCC(C)CCC(C)=O (configuration not stated),,inconclusive: 23.9 µM
C=CC(=O)OCCC(F)(F)C(F)(F)C(F)(F)C(F)(F)F,inactive,
OCCCC(F)(F)C(F)(F)C(F)(F)C(F)(F)C(F)(F)C(F)(F)C(F)(F)F,,inconclusive: 50 µM and inconclusive: 89.2 µM
FC(F)(F)COC(OCC(F)(F)F)OCC(F)(F)F,,inconclusive: 150 µM

# Tested on: not listed separately
# Assay: ATG_M_19_TRANS: Attagene TRANS-FACTORIAL HepG2 Assay for M19 Transcription Factor (Internal Marker) (AID 2282974)
# Details: HepG2 Attagene TRANS-FACTORIAL M19 internal marker reporter
# Procedure, shortened: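 HepG2 cells transiently transfected with multiple GAL4-UAS reporter transcription units were exposed to chemicals for 24 h. Reporter mRNA was read by RT-PCR, 6-FAM primer extension, HpaI digestion and capillary electrophoresis; gain of signal fitted relative to DMSO.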
Structure (SMILES),outcome,AC50
Cn1ccnc1,inactive,
c1ccc(B(c2ccccc2)c2ccccc2)cc1,inactive,inconclusive: 19.8 µM
OCCCS,inactive,
COC(=O)CC(=O)OC,,inconclusive: 26.4 µM
CC(=O)OCCOC(C)=O,inactive,
CCCOc1ccc(S(=O)(=O)N2CCN(CC)CC2)cc1-c1nc2c(CC)n(Cc3ccccn3)nc2c(=O)[nH]1,,inconclusive: 100 µM
CC(C)C(=O)OCCOc1ccccc1,inactive,
O=c1cccc[nH]1,inactive,
CCN(Cc1cccnc1)C(=O)c1cccc(Cl)c1[C@]1(C)C(=O)N(Cc2ccc(OC)cc2OC)c2ccc(Cl)cc21,,inconclusive: 0.15 µM
Cc1cc(CCN2CCN(c3nsc4ccccc34)CC2)cc2c1NC(=O)CC2(C)C,,inconclusive: 11 µM
CCCCCCCCCCCCOC(=O)c1cc(O)c(O)c(O)c1,inactive,
OC1CCCCCCCCCCC1,,inconclusive: 175 µM
Cc1cc(C)c(C)c(C)c1,inactive,
O=C1c2ccccc2C(=O)c2cc(S(=O)(=O)O)ccc21,inactive,
Cc1ccc(C(C)C)cc1,,inconclusive: 100 µM
COc1cc([N+](=O)[O-])ccc1N,inactive,

Structure (SMILES),outcome,AC50
CC1(C)[C@H]2CC[C@]1(C)C(=O)C2,,inconclusive: 100 µM
CCCCCC(C)O (configuration not stated),,inconclusive: 100 µM
c1ccc2sc(SN(C3CCCCC3)C3CCCCC3)nc2c1,inactive,
O=C(O)c1[nH]n(-c2ccc(S(=O)(=O)O)cc2)c(=O)c1N=Nc1ccc(S(=O)(=O)O)cc1,,inconclusive: 22.3 µM
CC=CCO,,inconclusive: 100 µM
O=c1n(CCO)c(=O)n(CCO)c(=O)n1CCO,inactive,
OCC(CO)n1cnc(-c2ccc(F)cc2)c1-c1ccnc(Oc2ccccc2)n1,inactive,
CSC(=O)c1cccc2nnsc12,,inconclusive: 100 µM and inconclusive: 50 µM
C=CCOCC(O)CO (configuration not stated),,inconclusive: 174 µM
C=CC(=O)OCCC(F)(F)C(F)(F)C(F)(F)C(F)(F)F,,inconclusive: 269 µM
CC=C1CC2C=CC1C2 (configuration not stated),inactive,
OCCCC(F)(F)C(F)(F)C(F)(F)C(F)(F)C(F)(F)C(F)(F)C(F)(F)F,,inconclusive: 78.3 µM and inconclusive: 50 µM
CCCCCCCCn1sc(Cl)c(Cl)c1=O,,inconclusive: 11.1 µM
O=Cc1ccccc1O,inactive,
FC(F)(F)COC(OCC(F)(F)F)OCC(F)(F)F,,inconclusive: 150 µM
